Over roughly 33,000 sequences, “E-score (-0.5 to 0.5)” has its median near -0.015; the highest 2% begin near 0.3. The list shows a part of the results.
molecular target: T1, Abf1 (UniProt P14164); assay: PBM E-score (8-mer binding enrichment) (E-score (-0.5 to 0.5)); higher = stronger / more preferred TF binding; conditions: protein concentration: 200 nM; construct: GST-full length
T1 sequence: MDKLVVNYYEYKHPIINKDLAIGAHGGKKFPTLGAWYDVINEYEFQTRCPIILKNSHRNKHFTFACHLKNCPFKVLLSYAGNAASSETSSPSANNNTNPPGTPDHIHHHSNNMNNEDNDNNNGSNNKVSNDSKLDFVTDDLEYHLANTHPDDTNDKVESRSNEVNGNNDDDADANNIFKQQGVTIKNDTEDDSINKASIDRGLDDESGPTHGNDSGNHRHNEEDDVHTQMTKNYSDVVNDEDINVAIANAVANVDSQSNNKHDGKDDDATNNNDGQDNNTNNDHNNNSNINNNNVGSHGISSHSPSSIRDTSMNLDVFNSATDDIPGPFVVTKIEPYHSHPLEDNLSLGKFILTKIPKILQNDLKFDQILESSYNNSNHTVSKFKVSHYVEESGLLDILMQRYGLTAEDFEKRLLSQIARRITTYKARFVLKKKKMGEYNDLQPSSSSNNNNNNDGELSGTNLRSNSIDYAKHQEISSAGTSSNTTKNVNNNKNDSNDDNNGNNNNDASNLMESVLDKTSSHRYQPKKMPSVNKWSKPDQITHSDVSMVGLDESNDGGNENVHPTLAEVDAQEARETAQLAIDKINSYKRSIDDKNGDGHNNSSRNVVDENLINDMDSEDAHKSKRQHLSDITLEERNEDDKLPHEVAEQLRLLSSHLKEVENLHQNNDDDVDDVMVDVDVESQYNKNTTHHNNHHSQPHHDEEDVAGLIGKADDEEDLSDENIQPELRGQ
Method: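 Universal 'all 10-mer' protein binding microarrays (Agilent AMADID 015681) probed with GST-tagged S. cerevisiae TFs (full-length or DBD) made by in vitro transcription/translation (PURExpress), about 100-200 nM. Bound TF was detected with fluorescent anti-GST. Each ungapped 8-mer (which stands for itself and its reverse complement) is scored by the PBM enrichment score (E-score), a modified Wilcoxon-Mann-Whitney statistic from -0.5 to +0.5, computed with the Universal PBM Analysis Suite. Scale: above 0.35 generally sequence-specific binding.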

Sequence | PBM E-score
ACGCCAGT | -0.217
ACCAACTC | 0.00329
GTTTCGTA | 0.26
CTTCCGAC | 0.0551
GGGGCCCC | -0.196
AAGTTGCA | -0.12
GAAGCAAA | -0.0207
AAGCGGCA | 0.00937
AACCCAAG | -0.0477
CAGTAGGC | -0.0385
AGTACGAT | 0.106
CGGGGCGA | 0.0363
CTCGAGAC | 0.234
ATCAACTC | 0.0915
TGTACGAA | 0.427
CCGCGCGA | 0.0788
GTTATATA | 0.0142
CTTCCCCA | -0.189
AGAATGGA | 0.101
CCAATTTA | 0.196
AGCCTGCA | 0.0184
CTATATAG | -0.0885
ATTGCCGA | -0.0295
AACGCCTC | -0.28
CCAGTAAC | -0.135

Sequence | PBM E-score
GGTGTACA | -0.178
CTAAAGTA | -0.0113
CAGGGGCG | -0.36
ATCGCAAG | -0.137
ACCCGTAG | -0.248
ACAACCTC | 0.0346
CGCTTATC | 0.0331
GCGTGTGA | -0.00541
TTCATGAA | 0.0994
AACGACCT | 0.114
CTGTGTGA | -0.165
CATTGCGG | -0.094
CGCTACCG | -0.057
GGTCTCTA | -0.0248
AGCATAGC | -0.149
GGAGTAAC | -0.179
AGCGATCA | 0.158
CAGCGCGA | -0.135
TGCCGGCA | -0.0454
CATGGGGG | -0.347
GCATCCCA | -0.239
GGTTGGTA | 0.0354
AAAGCAGG | 0.134
CAGCTCTA | -0.15
CTATGATA | 0.143

Sequence | PBM E-score
GCCCCGAA | -0.0285
ACTTCTTA | 0.194
TACTGAGA | -0.151
GTGCAGGA | -0.144
AAGTTCCG | -0.0595
AAACGGGA | 0.0928
AAGCTCCT | -0.111
AAAAATCG | -0.0187
GGGGGGCA | -0.259
GGCCGTTA | 0.0827
ACCCCAGT | -0.145
AGATGATG | 0.216
CAGGTAGA | -0.217
CTTCCATA | -0.143
CAGGAAGG | -0.2
GTCGTTTA | 0.298
CAGTCTAA | -0.0633
TCGGTAGA | -0.00211
GGCTAGCC | -0.126
AGTTAACG | 0.155
ACGGGCTG | 0.0917
TGACCCCA | -0.063
AGAGGGAG | -0.218
AAAATCTT | -0.0471
CTTAGCTC | -0.286

Reformatted as labelled records: entries from further up.
TCGGTAGA
  PBM E-score: -0.00211
GGCTAGCC
  PBM E-score: -0.126

(cont.)

Sequence | PBM E-score
GGGCATTA | -0.102
AATTACCT | 0.0245
CCTTCCAC | -0.249
GCTCACTA | 0.0163
CTTAGACC | -0.0387
ACCGGCAC | 0.0421
ACAGTGAG | -0.0226
ATGGTAGC | -0.106
GACGAACC | 0.141
ACTTGTAC | 0.16
CCTCTTCC | -0.286
CCAGCGCA | -0.209
AAGGTACC | -0.142
GTTACAAA | 0.183
TACCCTCA | -0.182
GCCCAGTA | -0.0754
AGGGGCTC | -0.266
CGCGGTTC | -0.0224
TAAGCGTA | -0.184
GAGGCACA | -0.278
AGGAGGCG | -0.293
CTGTCATA | 0.12
ACCGGTCG | -0.0575
CGAGAAGC | 0.0598
CCCATCAC | -0.112

Sequence | PBM E-score
CCCTGATC | -0.249
ATCACAGC | 0.154
AATGGGCC | -0.318
ACAGAACA | -0.0959
ACTCCGCA | -0.0785
CCTGCTAC | 0.0024
CCATGGCA | -0.154
TAGGCGCA | 0.0489
GAAACAGC | -0.121
CCGCTAAC | -0.103
CACAATCG | -0.00722
GCGGAGTA | -0.11
ACCCGGGA | -0.0314
GTCAGAAC | 0.0557
CAATATCA | 0.283
CAGCGGAA | -0.144
AGGTTACT | 0.024
CACCCCGG | -0.121
GAAGACGC | -0.0994
AATCACAC | 0.0654
GGAGTTAC | 0.13
GACGATTA | 0.31
CCGACCCG | -0.128
CAAATGTA | 0.214
CCGGGTGC | -0.176

A different layout for some results above.
AATGGGCC
  PBM E-score: -0.318
TAGGCGCA
  PBM E-score: 0.0489
CAGCGGAA
  PBM E-score: -0.144

Carrying on:

Sequence | PBM E-score
GCTAAATA | 0.121
CTATCTTA | -0.149
CTCAACAG | -0.0447
ATGGTGCG | -0.162
ACGGCCCT | 0.181
CTAAGCTC | -0.00188
CACTTAAG | 0.0851
GAGTTTGC | -0.0954
GCACGCCC | -0.109
GCCCATGA | 0.0491
GGTCCTCA | -0.0235
AATCATGT | 0.176
AGTCACCA | 0.093
ATGCCTTA | 0.0557
ATATTTGA | 0.122
ACATAACA | 0.102
AGGTGACA | 0.362
AATGGCAG | 0.00485
CCCGTCTA | 0.15
ACAGACCG | 0.00191
ACACATCA | 0.094
CGATTAAC | 0.0233
CATTACCG | 0.0587
GAGGGGAC | -0.202
ATTGTGCG | -0.143

A different layout for some results above.
Sequence,PBM E-score
ATGCCTTA,0.0557
ATATTTGA,0.122
ACATAACA,0.102
AGGTGACA,0.362
AATGGCAG,0.00485
CCCGTCTA,0.15

More entries follow:

Sequence | PBM E-score
ACAGAGCG | 0.056
ACTTAAGT | 0.0656
ACTGTCTC | -0.0997
TCTGGACA | -0.123
CATGAGTA | 0.00626
AGGATTCG | 0.0455
AGCTTCGA | -0.0686
TCATACGA | 0.328
CTTTCATC | 0.0704
GAGCTGAC | -0.103
CGCGGCCC | -0.0569
ACATGTGG | 0.0141
AAGTTGGA | 0.0871
GCCTTAAA | 0.0571
CTTTAGCA | -0.159
CGGAAGAC | 0.0364
CCATGAGG | -0.117
GCAGAAAA | 0.0404
ACCCATGG | -0.209
CGATATTA | 0.326
CACTATTA | 0.137
CATCAGAC | -0.02
